According to PubChem BioAssay (NCATS):
The inconclusive results got no clear call from the source; some entries with a clear call stand among them for comparison. For some assays here: A potency beside an inconclusive call is a rough fit, not a confirmed value. Active and inactive are the calls of the source. The call rests on the fitted dose curve; in most records, active means well fitted curve in the direction sought with a large enough effect; inconclusive means small, poorly fitted or top-dose-only effect, or another doubt; inactive means no such curve, though single readings can be large; an effect the other way counts as inactive or inconclusive.

The chains behind the UniProt entries cited, without tags or fusion partners.
UniProt P08684, whole entry, looked up: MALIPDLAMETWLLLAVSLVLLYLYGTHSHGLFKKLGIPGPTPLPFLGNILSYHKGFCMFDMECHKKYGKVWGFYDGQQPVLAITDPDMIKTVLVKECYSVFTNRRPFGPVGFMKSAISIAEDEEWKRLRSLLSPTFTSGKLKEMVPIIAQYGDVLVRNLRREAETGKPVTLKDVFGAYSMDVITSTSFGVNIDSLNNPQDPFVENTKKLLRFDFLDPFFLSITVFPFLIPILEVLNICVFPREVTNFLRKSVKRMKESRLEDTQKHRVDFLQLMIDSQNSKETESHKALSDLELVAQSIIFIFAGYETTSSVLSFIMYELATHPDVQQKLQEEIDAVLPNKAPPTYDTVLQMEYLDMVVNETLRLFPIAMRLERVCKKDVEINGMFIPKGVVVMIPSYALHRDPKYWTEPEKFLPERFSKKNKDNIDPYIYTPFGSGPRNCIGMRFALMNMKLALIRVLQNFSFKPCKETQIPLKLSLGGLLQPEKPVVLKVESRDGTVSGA

How the values were obtained:
[1] = Quantitative High-Throughput drug screen in 47 multiple myeloma cell lines against the NCATS MIPE library collection: L363_DSMZ cell viability assay (AID 1918984); details: L363 myeloma viability, CellTiter-Glo ATP luminescence, 48 h; viability (% of control): at 45.8 µM (top of the series); further: nearly all actives have a fitted effect of over 40% in size; further: potency means the concentration at half of the fitted maximal effect
Outline: (§1)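 Myeloma cells (500/well) treated with MIPE 4.0 compounds for 48 h at 37 °C, 5% CO2. Viability read as ATP via CellTiter-Glo luminescence after 5 min at RT; DMSO-only wells = 100%, media-only = 0% viability.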

[2] = Quantitative High-Throughput drug screen in 47 multiple myeloma cell lines against the NCATS MIPE library collection: KMS34_JCRB cell viability assay (AID 1918985); further: nearly all actives have a fitted effect of over 40% in size; further: potency means the concentration at half of the fitted maximal effect
Outline: as §1

[3] = Quantitative High-Throughput drug screen in 47 multiple myeloma cell lines against the NCATS MIPE library collection: OCIMY7_PLB cell viability assay (AID 1918987); details: OCI-MY7 myeloma viability, CellTiter-Glo ATP, 48 h; viability (% of DMSO): at 45.8 µM (top of the series); further: nearly all actives have a fitted effect of over 65% in size; further: potency means the concentration at half of the fitted maximal effect
Outline: as §1

[4] = Quantitative High-Throughput drug screen in 47 multiple myeloma cell lines against the NCATS MIPE library collection: OCIMY5_PLB cell viability assay (AID 1918988); further: nearly all actives have a fitted effect of over 65% in size; further: potency means the concentration at half of the fitted maximal effect
Outline: as §1

[5] = Quantitative High-Throughput drug screen in 47 multiple myeloma cell lines against the NCATS MIPE library collection: OPM1_PLB cell viability assay (AID 1918989); further: nearly all actives have a fitted effect of over 40% in size; further: potency means the concentration at half of the fitted maximal effect
Outline: as §1

[6] = Quantitative High-Throughput drug screen in 47 multiple myeloma cell lines against the NCATS MIPE library collection: SKMM1_PLB cell viability assay (AID 1919863); details: SKMM1 myeloma viability, CellTiter-Glo ATP, 48 h; viability: active compounds read low; further: nearly all actives have a fitted effect of over 35% in size; further: potency means the concentration at half of the fitted maximal effect
Outline: as §1

[7] = Quantitative High-Throughput drug screen in 47 multiple myeloma cell lines against the NCATS MIPE library collection: XG6_PLB cell viability assay (AID 1919865); details: XG6 myeloma viability, CellTiter-Glo ATP luminescence, 48 h; viability (% of control): at 45.8 µM (top of the series); further: nearly all actives have a fitted effect of over 40% in size; further: potency means the concentration at half of the fitted maximal effect
Outline: as §1

[8] = Quantitative High-Throughput drug screen in 47 multiple myeloma cell lines against the NCATS MIPE library collection: UTMC2_PLB cell viability assay (AID 1919868); details: CellTiter-Glo ATP luminescence, 48 h; viability (% of DMSO control): at 45.8 µM (top of the series); further: nearly all actives have a fitted effect of over 55% in size; further: potency means the concentration at half of the fitted maximal effect
Outline: as §1

[9] = Quantitative High-Throughput drug screen in 47 multiple myeloma cell lines against the NCATS MIPE library collection: PCM6_Riken cell viability assay (AID 1919870); further: nearly all actives have a fitted effect of over 30% in size; further: potency means the concentration at half of the fitted maximal effect
Outline: as §1

[10] = Quantitative High-Throughput drug screen in 47 multiple myeloma cell lines against the NCATS MIPE library collection: RPMI8226_ATCC cell viability assay (AID 1919871); details: RPMI8226 myeloma viability, CellTiter-Glo ATP luminescence, 48 h; viability (% of control): at 45.8 µM (top of the series); further: nearly all actives have a fitted effect of over 30% in size; further: potency means the concentration at half of the fitted maximal effect
Outline: as §1

[11] = Quantitative High-Throughput drug screen in 47 multiple myeloma cell lines against the NCATS MIPE library collection: XG1_PLB cell viability assay (AID 1919866); details: CellTiter-Glo ATP, 48 h; viability: at 45.8 µM (top of the series); further: nearly all actives have a fitted effect of over 35% in size; further: potency means the concentration at half of the fitted maximal effect
Outline: as §1

[12] = Quantitative High-Throughput drug screen in 47 multiple myeloma cell lines against the NCATS MIPE library collection: OPM2_DSMZ cell viability assay (AID 1919872); further: nearly all actives have a fitted effect of over 30% in size; further: potency means the concentration at half of the fitted maximal effect
Outline: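 We plated 500 myeloma cells per well, pinned in MIPE 4.0 compounds, and incubated for 48 hours at 37C. ATP was then quantified with CellTiter-Glo, with DMSO and media-only wells defining 100% and 0%.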

[13] = Quantitative High-Throughput drug screen in 47 multiple myeloma cell lines against the NCATS MIPE library collection: VP6_DJ cell viability assay (AID 1919867); details: ATP luminescence, 48 h; viability (% of DMSO): at 45.8 µM (top of the series)
Outline: as §1

[14] = Quantitative High-Throughput drug screen in 47 multiple myeloma cell lines against the NCATS MIPE library collection: PE2_PLB cell viability assay (AID 1919869); details: PE2_PLB myeloma cells viability, ATP luminescence, 48 h; viability (% of control): at 45.8 µM (top of the series); further: nearly all actives have a fitted effect of over 35% in size; further: potency means the concentration at half of the fitted maximal effect
Outline: as §1

[15] = Quantitative High-Throughput drug screen in 47 multiple myeloma cell lines against the NCATS MIPE library collection: KMS11_JCRBsus cell viability assay (AID 1919873); further: nearly all actives have a fitted effect of over 50% in size; further: potency means the concentration at half of the fitted maximal effect
Outline: as §1

[16] = Quantitative High-Throughput drug screen in 47 multiple myeloma cell lines against the NCATS MIPE library collection: KMS28BM_JCRB cell viability assay (AID 1919874); further: nearly all actives have a fitted effect of over 35% in size; further: potency means the concentration at half of the fitted maximal effect
Outline: as §1

[17] = Quantitative High-Throughput drug screen in 47 multiple myeloma cell lines against the NCATS MIPE library collection: U266_ATCC cell viability assay (AID 1919864); details: U266 myeloma viability, CellTiter-Glo ATP luminescence, 48 h; viability (% of DMSO control): at 45.8 µM (top of the series); further: nearly all actives have a fitted effect of over 35% in size; further: potency means the concentration at half of the fitted maximal effect
Outline: as §1

[18] = target: Cytochrome P450 3A4 (Homo sapiens) (UniProt P08684); experiment: qHTS for inhibitors of CYP3A4 against the NCATS DSHEA and TCM libraries (AID 1919971); details: recombinant CYP3A4 enzyme activity, luminescence qHTS; at 34.1 µM (top of the series);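 further: on the % scale 0 is the no-effect control and ±100 the full control effect; inhibition lowers luminescence from luciferin made by CYP3A4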
Outline: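 Luminescent P450-Glo readout. Enzyme plus pro-luciferin substrate in manufacturer buffer (typically 100 mM KPO4); 15 min RT preincubation; 1x NADPH regenerating system, 30-45 min RT in the dark; detection reagent 30 min.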

CNCC(O)c1ccc(O)cc1 (centres undefined)
inconclusive: Potency [1] 23500 nM [cytotoxic, single point] | Potency [4] 1480 nM [cytotoxic, full curve, poor fit] | Potency [6] 1.9 nM [rising, full curve, poor fit] | Potency [7] 18700 nM [cytotoxic, partial curve, poor fit] | Potency [8] 11.8 nM [rising, full curve, poor fit] | Potency [9] 13200 nM [cytotoxic, partial curve, poor fit]
inactive: Potency [2] | Potency [3] | Potency [5] | Potency [10]

CC=C(C)C(=O)O[C@H]1C(C)=C2[C@@H]3OC(=O)[C@@](C)(O)[C@@]3(O)[C@@H](OC(=O)CCC)C[C@](C)(OC(C)=O)[C@@H]2[C@@H]1OC(=O)CCCCCCC
active: Potency [2] 16.6 nM | Potency [3] 264 nM | Potency [11] 46.9 nM | Potency [12] 33.2 nM

CCC1(c2ccc(N)cc2)CCC(=O)NC1=O (centres undefined)
inconclusive: Potency [1] 1 nM [cytotoxic] | Potency [3] 4690 nM [cytotoxic, partial curve, poor fit] | Potency [6] 59 nM [cytotoxic, full curve, poor fit] | Potency [13] 5900 nM [cytotoxic, partial curve, poor fit] | Potency [9] 5900 nM [cytotoxic, partial curve, poor fit] | Potency [15] 74.3 nM [cytotoxic, full curve, poor fit]
inactive: Potency [2] | Potency [4] | Potency [7] | Potency [11] | Potency [8] | Potency [14] | Potency [16]

No new results follow: 2 of the compounds above.
CC=C(C)C(=O)O[C@H]1C(C)=C2[C@@H]3OC(=O)[C@@](C)(O)[C@@]3(O)[C@@H](OC(=O)CCC)C[C@](C)(OC(C)=O)[C@@H]2[C@@H]1OC(=O)CCCCCCC
active: Potency [2] 16.6 nM | Potency [3] 264 nM | Potency [11] 46.9 nM | Potency [12] 33.2 nM

CCC1(c2ccc(N)cc2)CCC(=O)NC1=O (centres undefined)
inconclusive: Potency [1] 1 nM [cytotoxic] | Potency [3] 4690 nM [cytotoxic, partial curve, poor fit] | Potency [6] 59 nM [cytotoxic, full curve, poor fit] | Potency [13] 5900 nM [cytotoxic, partial curve, poor fit] | Potency [9] 5900 nM [cytotoxic, partial curve, poor fit] | Potency [15] 74.3 nM [cytotoxic, full curve, poor fit]
inactive: Potency [2] | Potency [4] | Potency [7] | Potency [11] | Potency [8] | Potency [14] | Potency [16]

Continued:

CO[C@H]1CCC(O[C@H]2C[C@H]([C@]3(C)CC[C@]4(C[C@H](O)[C@@H](C)[C@@H]([C@@H](C)C=C(C)C(=O)[C@H](C)C[C@H](C)C(=O)O)O4)O3)O[C@]3(O[C@@H]([C@H]4O[C@@](O)(CO)[C@H](C)C[C@H]4C)C[C@H]3C)[C@H]2C)O[C@H]1C (some centres undefined)
active: Potency [1] 148 nM | Potency [2] 1180 nM | Potency [3] 935 nM | Potency [4] 132 nM | Potency [5] 418 nM | Potency [17] 296 nM | Potency [7] 418 nM | Potency [9] 935 nM | Potency [12] 296 nM

CC[C@@]1(O)C(=O)OCc2c1cc1n(c2=O)Cc2cc3ccccc3nc2-1
active: Potency [1] 296 nM | Potency [2] 209 nM | Potency [3] 1 nM | Potency [4] 166 nM | Potency [5] 833 nM | Potency [6] 235 nM | Potency [8] 16.6 nM | Potency [15] 418 nM

Oc1ccc2c3c1O[C@H]1c4[nH]c5c(c4C[C@@]4(O)[C@@H](C2)N(CC2CC2)CC[C@]314)C[C@@]1(O)[C@H]2Cc3ccc(O)c4c3[C@@]1(CCN2CC1CC1)[C@H]5O4
inactive: Potency [1] | Potency [2] | Potency [7] | Potency [14] | Potency [9] | Potency [12] | Potency [15] | Potency [16]
inconclusive: Potency [3] 2.1 nM [rising, full curve, poor fit] | Potency [4] 37200 nM [cytotoxic, single point] | Potency [6] 6.6 nM [rising, full curve, poor fit] | Potency [17] 1320 nM [rising, partial curve, poor fit] | Potency [8] 14800 nM [rising, partial curve, poor fit]

COC1=CC(=O)O[C@@H](/C=C/c2ccccc2)C1
inactive: activity change, negative = inhibition [18] 28.2%

N=c1c2c(-c3ccccc3)c(-c3ccccc3)n(Cc3ccccc3)c2ncn1C1CCC(O)CC1 (centres undefined)
inconclusive: Potency [11] 105 nM [cytotoxic, full curve, poor fit] | Potency [8] 187 nM [cytotoxic, full curve, poor fit] | Potency [9] 1050 nM [cytotoxic, partial curve, poor fit]
active: Potency [4] 11800 nM | Potency [10] 14800 nM | Potency [15] 2090 nM | Potency [16] 3320 nM

CCOC(=O)Nc1ccc(NCc2ccc(F)cc2)cc1N
inconclusive: Potency [1] 18700 nM [cytotoxic, partial curve, poor fit] | Potency [7] 14800 nM [cytotoxic, partial curve] | Potency [8] 37200 nM [cytotoxic, partial curve, poor fit] | Potency [9] 14800 nM [cytotoxic, partial curve, poor fit] | Potency [10] 20900 nM [cytotoxic, partial curve, poor fit] | Potency [16] 20.9 nM [cytotoxic, full curve, poor fit]
inactive: Potency [4] | viability [6] 119% | Potency [15]
active: Potency [3] 10500 nM | Potency [17] 13200 nM

COc1cc2cc(c1Cl)N(C)C(=O)C[C@H](OC(=O)C(C)C)[C@]1(C)O[C@H]1[C@H](C)[C@@H]1C[C@@](O)(NC(=O)O1)[C@H](OC)C=CC=C(C)C2
inconclusive: Potency [13] 7.4 nM [cytotoxic, partial curve, poor fit]
inactive: Potency [1] | Potency [2] | Potency [3] | Potency [4] | Potency [5] | Potency [17] | Potency [7] | Potency [8] | Potency [9]

CCC(=O)OC1CCC2C3CCC4=CC(=O)CC[C@@]4(C)C3CC[C@]12C (some centres undefined)
inconclusive: Potency [4] 20900 nM [cytotoxic, partial curve, poor fit] | Potency [17] 18.7 nM [rising, full curve, poor fit] | Potency [7] 46.9 nM [rising, full curve] | Potency [13] 18700 nM [cytotoxic, single point] | Potency [8] 66.2 nM [rising, full curve, poor fit] | Potency [14] 37200 nM [cytotoxic, single point] | Potency [10] 46.9 nM [rising, full curve, poor fit]
inactive: Potency [1] | Potency [2] | Potency [9] | Potency [16]

O=C1CC[C@@]2(O)[C@H]3Cc4ccc(O)c5c4[C@@]2(CCN3CC2CC2)[C@H]1O5
active: Potency [5] 7430 nM
inconclusive: viability (% of control) [1] 98.1% [cytotoxic] | Potency [3] 187 nM [cytotoxic, full curve, poor fit] | Potency [4] 11800 nM [rising, partial curve, poor fit] | Potency [13] 6620 nM [cytotoxic, partial curve, poor fit]
inactive: Potency [2] | viability [6] 110% | Potency [11] | Potency [8] | Potency [9] | Potency [12] | Potency [15]

CCCN1CCO[C@@H]2c3cc(O)ccc3OC[C@@H]21
inconclusive: Potency [1] 46.9 nM [cytotoxic, full curve, poor fit] | Potency [2] 26400 nM [cytotoxic, partial curve, poor fit] | Potency [3] 9350 nM [cytotoxic, full curve, poor fit] | Potency [6] 8.3 nM [cytotoxic, full curve, poor fit] | Potency [7] 2.1 nM [rising, full curve, poor fit] | Potency [13] 4.2 nM [rising, full curve] | Potency [8] 1 nM [cytotoxic] | Potency [16] 18.7 nM [rising, full curve, poor fit]
inactive: Potency [5] | Potency [17] | Potency [11] | Potency [14] | Potency [15]

CC1(N2CCC(n3c([C@@H]4CCCNC4)nc4ccccc43)CC2)CCCCCCC1
inconclusive: Potency [2] 20900 nM [cytotoxic, partial curve] | Potency [3] 29600 nM [cytotoxic, single point] | Potency [4] 33200 nM [cytotoxic, single point] | Potency [6] 11800 nM [cytotoxic, partial curve] | Potency [8] 8330 nM [cytotoxic, partial curve, poor fit]
active: Potency [11] 18700 nM | Potency [9] 14800 nM | Potency [12] 18700 nM | Potency [15] 13200 nM

COc1ccc(C(=O)c2c(C)n(CCN3CCOCC3)c3ccccc23)cc1
inconclusive: Potency [1] 5900 nM [cytotoxic, partial curve, poor fit] | Potency [2] 1320 nM [rising, partial curve, poor fit] | Potency [3] 29600 nM [cytotoxic, single point] | Potency [4] 3.3 nM [cytotoxic, full curve, poor fit] | Potency [6] 2.6 nM [cytotoxic, full curve, poor fit]
inactive: Potency [17] | Potency [11] | Potency [8] | Potency [14] | Potency [16]

Cc1sc2c(c1C)C(c1ccc(Cl)cc1)=N[C@@H](CC(=O)OC(C)(C)C)c1nnc(C)n1-2
active: Potency [2] 235 nM | Potency [17] 148 nM | Potency [8] 662 nM | Potency [15] 59 nM | Potency [16] 105 nM
inconclusive: viability (% of DMSO) [3] 13.2% [cytotoxic] | Potency [10] 469 nM [cytotoxic, full curve] | Potency [12] 418 nM [cytotoxic, full curve]
